Source: patent publication US20170306048A1
These are yes or no findings as the source states them, for the method shown. Some binding calls cover weakened binding; strength is not graded here.

The chains behind the UniProt entries cited, without tags or fusion partners. Residues count along the entry.
UniProt P40763, residues 2-770: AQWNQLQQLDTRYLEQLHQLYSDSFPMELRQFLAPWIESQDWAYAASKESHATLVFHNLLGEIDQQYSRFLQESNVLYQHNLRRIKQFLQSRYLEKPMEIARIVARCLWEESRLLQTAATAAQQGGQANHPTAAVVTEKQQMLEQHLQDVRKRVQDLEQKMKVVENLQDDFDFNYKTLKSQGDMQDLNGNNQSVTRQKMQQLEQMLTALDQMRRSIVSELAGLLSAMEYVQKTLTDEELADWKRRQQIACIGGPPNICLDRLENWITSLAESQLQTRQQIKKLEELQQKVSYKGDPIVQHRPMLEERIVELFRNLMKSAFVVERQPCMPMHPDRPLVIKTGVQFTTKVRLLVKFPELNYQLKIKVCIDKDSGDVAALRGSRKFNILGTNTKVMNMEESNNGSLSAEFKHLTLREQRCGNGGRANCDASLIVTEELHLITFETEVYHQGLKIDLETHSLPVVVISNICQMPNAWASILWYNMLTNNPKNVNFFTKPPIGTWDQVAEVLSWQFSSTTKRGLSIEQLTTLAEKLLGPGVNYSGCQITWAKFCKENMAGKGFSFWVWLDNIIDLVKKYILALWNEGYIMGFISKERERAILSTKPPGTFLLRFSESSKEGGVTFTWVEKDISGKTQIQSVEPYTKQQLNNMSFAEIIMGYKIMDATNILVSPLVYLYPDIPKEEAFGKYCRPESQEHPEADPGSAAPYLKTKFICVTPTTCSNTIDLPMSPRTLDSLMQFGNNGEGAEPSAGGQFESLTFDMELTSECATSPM

What was measured:
[1] = molecular target: human STAT3, endogenous, in human cell lines (U251, MDA-MB-468, HeLa, MCF-10A, MCF-7, COLO205) (human) (UniProt P40763); test: high throughput flow cytometry on permeabilised U251 cells
[2] = molecular target: human STAT3, endogenous, in human cell lines (U251, MDA-MB-468, HeLa, MCF-10A, MCF-7, COLO205) (human) (UniProt P40763); test: flow cytometry (HTFC) on permeabilised U251 cells, PE anti-human IgG

B1: ST3G12-PS antibody conjugate (compound 901) (antibody, V domains shown)
VH: QVQLVQSGAEVKKPGASVKVSCKASGYTFTSYYMHWVRQAPGQGLEWMGIINPSGGSTSYAQKFQGRVTMTRDTSTSTVYMELSSLRSEDTAVYYCARSDYVHSFDIWGQGTMVTVSS
VL: QPVLTQPPSASALLGASIKLTCTLSSEHSTYTVEWYQQRPGRSPQYIMNVKSDGSYNKGDGIPDRFMGSSSGADRYLTFSNLQSDDEAEYHCGESHRIDGQVGVVFGGGTKLTVL
- binding [1]: binds
- binding [2]: binds
